Laboratory results published in PMC7602221.
The exact form of at least one protein or probe is not confirmed.

Target: glycated human serum albumin (GHSA) (Homo sapiens) (UniProt P02768)
Experiment: rGO fluorescence recovery
Conditions: 12.5 ug GHSA in 100 uL, aptamer titrated; 1x PBS pH 7.4, 30 min incubation, then rGO 0.5 mg/mL (100 uL) added, centrifuged, supernatant fluorescence read; native protein; label: 5'-FAM; single-stranded DNA

**Q.** “ATGCGGATCCCGCGCGCAGTGCAGGGAGCCGCTCCACGTACGTTGCGCGAAGCTTGCGC [GABAS-01]” was tested. Which Kd did it give?
**A.** 1.75 nM
